# According to PubChem BioAssay AID1117319 (Southern Research Institute, 2015):
# Sequences of proteins named here, by UniProt entry; tags and fusion partners are left off. A change or cut given only in a name is not applied to a line headed by its entry.
# UniProt P69720: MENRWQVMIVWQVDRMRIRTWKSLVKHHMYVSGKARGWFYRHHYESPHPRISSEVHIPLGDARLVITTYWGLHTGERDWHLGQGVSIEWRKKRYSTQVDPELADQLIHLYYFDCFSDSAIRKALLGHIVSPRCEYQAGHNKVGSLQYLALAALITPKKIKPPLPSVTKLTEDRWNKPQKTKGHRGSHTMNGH
# UniProt P69721: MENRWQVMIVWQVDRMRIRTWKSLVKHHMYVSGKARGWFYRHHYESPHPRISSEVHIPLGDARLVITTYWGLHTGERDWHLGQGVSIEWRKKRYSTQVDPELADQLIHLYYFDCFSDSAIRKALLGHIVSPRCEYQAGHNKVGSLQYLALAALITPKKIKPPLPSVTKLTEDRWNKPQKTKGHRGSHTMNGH
# UniProt P69722: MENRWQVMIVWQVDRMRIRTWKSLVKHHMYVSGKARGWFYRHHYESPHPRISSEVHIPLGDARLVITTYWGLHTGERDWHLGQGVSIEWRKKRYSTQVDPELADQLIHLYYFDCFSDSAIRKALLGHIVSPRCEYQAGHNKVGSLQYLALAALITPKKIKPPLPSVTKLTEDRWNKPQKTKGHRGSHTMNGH
# UniProt P69723: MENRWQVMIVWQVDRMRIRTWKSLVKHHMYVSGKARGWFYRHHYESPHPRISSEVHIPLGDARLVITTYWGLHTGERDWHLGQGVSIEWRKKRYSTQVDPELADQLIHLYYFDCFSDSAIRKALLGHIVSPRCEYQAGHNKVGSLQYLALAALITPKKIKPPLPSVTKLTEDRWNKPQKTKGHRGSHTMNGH
# UniProt Q9HC16: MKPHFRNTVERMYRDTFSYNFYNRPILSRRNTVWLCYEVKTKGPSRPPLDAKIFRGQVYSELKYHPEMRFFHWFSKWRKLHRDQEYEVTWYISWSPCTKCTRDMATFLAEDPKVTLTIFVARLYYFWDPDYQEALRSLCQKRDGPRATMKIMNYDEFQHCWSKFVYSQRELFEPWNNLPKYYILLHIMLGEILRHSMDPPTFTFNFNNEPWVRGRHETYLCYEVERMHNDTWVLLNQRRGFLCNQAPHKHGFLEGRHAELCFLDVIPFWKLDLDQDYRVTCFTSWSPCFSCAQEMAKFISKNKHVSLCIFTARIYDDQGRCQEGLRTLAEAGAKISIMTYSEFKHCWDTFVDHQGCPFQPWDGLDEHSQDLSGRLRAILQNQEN
# In all, about 260,000 compounds went through this assay and about 1,500 (0.58%) were called active. The shares of active, inactive and inconclusive entries below differ from those in the screen.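 How the source made its calls: active means inhibition above a set limit at one or more doses, reproduced on every date tested; inconclusive means results disagree between test dates, or hit never tested in dose response; inactive means the rest.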
# Target: Virion infectivity factor (Human immunodeficiency virus type 1 group M subtype B (isolate BH10)) + Virion infectivity factor (Human immunodeficiency virus type 1 group M subtype B (isolate BRU/LAI)) + Virion infectivity factor (Human immunodeficiency virus type 1 group M subtype B (isolate PCV12)) + Virion infectivity factor (Human immunodeficiency virus type 1 group M subtype B (isolate HXB2)) + DNA dC->dU-editing enzyme APOBEC-3G (Homo sapiens) (UniProt P69720+P69721+P69722+P69723+Q9HC16)
# Test: inhibitors of Vif binding to APOBEC3G peptide, primary screen, biochemical, TR-FRET, GST-Vif 1-94, biotin-A3G peptide, dose response retest (AID 1117319);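 further: Vif residues 1-94 fused to GST binding biotinylated APOBEC3G peptide 110-148; 0% = full assay without inhibitor and 100% = GST in place of GST-Vif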
# Conditions: hits give high values
row,Structure (SMILES),inhibition
1,O=C(COc1ncnc2scc(-c3ccccc3)c12)NCCN1C(=O)CSC1=O,inconclusive: 47.8%
2,CC(C)(C)n1nnnc1C(c1ccc(F)cc1)N1CCC(C(N)=O)CC1 (configuration not stated),inconclusive: 50.7%
3,COc1ccc(C(=O)C2CCCN(Cc3cccn3-c3nccs3)C2)cc1OC (configuration not stated),inconclusive: 48.4%
4,Cc1cc(C(=O)CSc2nc3ccccc3[nH]2)c(C)n1C,inconclusive: 35.5%
5,CC(=O)c1ccc(OCC(O)CN2CCN(CCN3C(=O)c4cccc5cccc(c45)C3=O)CC2)cc1 (configuration not stated),inconclusive: 43.1%
6,CC1=C(C(=O)OCc2ccccc2)C(c2cccs2)NC(=O)N1CCCC(=O)O (configuration not stated),inconclusive: 41.2%
7,COc1ccc(S(=O)(=O)Nc2ccc3c(c2)COC3=O)cc1OC,inconclusive: 53.3%
8,O=C(CSc1nnnn1-c1ccccc1)CSc1nnnn1-c1ccccc1,inconclusive: 60.3%
9,COc1ccc(CNc2oc(-c3cccc4ccccc34)nc2C#N)cc1,inconclusive: 38.2%
10,O=C(OCc1nc2ccccc2s1)c1cnccn1,inconclusive: 39.9%
11,O=C1CC(C(F)(F)F)=NN1,inconclusive: 61.7%
12,O=C(O)CCC(C(=O)O)n1c(O)c(C2=c3ccccc3=NC2=O)sc1=S (configuration not stated),inconclusive: 39.4%
13,CN1CCN(S(=O)(=O)c2ccc(Br)c3nsnc23)CC1,inconclusive: 35.5%
14,COc1ccc(C(c2nnnn2C(C)(C)C)N2CCN(C)CC2)cc1OC (configuration not stated),inconclusive: 34.4%
15,CCOc1ccc(/C=C/C(=O)c2cc(Br)ccc(=O)c2O)cc1,inconclusive: 51%
16,Cc1ccc(NC(=O)c2cc3c(s2)CCC3)cc1S(=O)(=O)N1CCOCC1,inconclusive: 36.3%
17,CCCCCCCC/C=C\CCCCCCCC(=O)O,inconclusive: 58.2%
18,COc1cc(/C=C(/NC(C)=O)C(=O)O)cc(Cl)c1OCc1ccc(Br)cc1,inconclusive: 58.2%
19,O=C(COc1ccc([N+](=O)[O-])cc1)NNC(=S)NC(=O)c1ccc(Br)cc1,inconclusive: 55.5%

# An excerpt of these results, bar-delimited.
row | Structure (SMILES) | inhibition
10 | O=C(OCc1nc2ccccc2s1)c1cnccn1 | inconclusive: 39.9%
11 | O=C1CC(C(F)(F)F)=NN1 | inconclusive: 61.7%

# Additional entries.

row,Structure (SMILES),inhibition
1,Cc1nnc(Sc2cc(NCCO)c([N+](=O)[O-])c3nonc23)s1,inconclusive: 47.6%
2,C=CCn1c(COc2ccc(Cl)cc2)nnc1SCC(=O)c1c(N)n(C)c(=O)n(C)c1=O,inconclusive: 48.7%
3,COc1ccc(CN2C(=O)C(CC(=O)NCCCCc3ccccc3)CC(C(=O)N(C(C)C)C(C)C)=C2C)cc1 (configuration not stated),inactive: 6.93%
4,COc1cccc(C(=O)Nc2ccc3nc(N4CCN(c5ncccn5)CC4)cc(C)c3c2)c1OC,inconclusive: 35.6%
5,Cc1ccc(C)c(NC(=S)NCc2ccc3c(c2)OCO3)c1,inconclusive: 38.9%
6,COC(=O)c1cccc(NS(C)(=O)=O)c1,inconclusive: 42.3%
7,C=CCN1CC(c2nc3ccccc3n2CCOc2ccccc2)CC1=O (configuration not stated),inconclusive: 26.3%
8,O=C(CCCNS(=O)(=O)c1cccc2nsnc12)NCc1ccc(Cl)cc1,inconclusive: 24.9%
9,COc1cc2[nH]c(=O)c(C(=O)NCc3ccc(C)cc3)c(O)c2cc1OC,inactive: -8.1%
10,O=C(NCCCCNC(=O)C(F)(F)F)C(F)(F)F,inactive: 0.85%
11,O=C(Oc1ccccc1-c1nnco1)c1ccc(Cl)cc1,inactive: 5.13%
12,CC(C)CCNC(=O)C(=O)NCc1ccccc1,inactive: 21.7%
13,c1ccc(-c2noc(-c3ccco3)n2)nc1,inconclusive: 36.7%
14,COc1ccc(/C=C(\C)c2nc(C)c(-c3ccccc3)c(=O)[nH]2)cc1,inconclusive: 42.7%
15,CCOc1ccc(NC(=O)C(c2ccccn2)N(C(=O)CCl)c2ccc(OC)cc2)cc1 (configuration not stated),inconclusive: 40.5%
16,C=CCOc1c(Br)cc(CNc2ccc3[nH]c(=O)[nH]c3c2)cc1OCC,inconclusive: 38%
17,COc1ccc(CNC(=O)/C=C/C(=O)O)cc1,inconclusive: 51%
18,COc1cccc(-c2nn(C)c3sc(C(=O)N4CCN(c5ccccc5)CC4)cc23)c1,inconclusive: 58.9%
19,Cc1cccnc1NC(=O)CSc1nnc(COc2ccc(C(C)C)cc2)n1C,inconclusive: 36.7%

# Sorted by SMILES length (largest number first): some entries from above
row,Structure (SMILES),inhibition
18,COc1cccc(-c2nn(C)c3sc(C(=O)N4CCN(c5ccccc5)CC4)cc23)c1,inconclusive: 58.9%
9,COc1cc2[nH]c(=O)c(C(=O)NCc3ccc(C)cc3)c(O)c2cc1OC,inactive: -8.1%
17,COc1ccc(CNC(=O)/C=C/C(=O)O)cc1,inconclusive: 51%

# (listing goes on)

row,Structure (SMILES),inhibition
1,N#C/C(=C/c1ccc(N2CCCCC2)o1)c1cccc(F)c1,inconclusive: 36.1%
2,CC(=O)c1ccc(-n2nnnc2SCC(=O)N2CCN(C(=O)c3ccco3)CC2)cc1,inconclusive: 43.6%
3,Cc1ccc(C(O)c2nccn2C)o1 (configuration not stated),inconclusive: 41.2%
4,OC(c1ccccc1)C(CN1CCOCC1)c1ccccc1 (configuration not stated),inconclusive: 55.8%
5,CCOC(=O)C(=O)c1cn(C2OCC(OC(C)=O)C(OC(C)=O)C2OC(C)=O)c2ccccc12 (configuration not stated),inconclusive: 34.1%
6,CC(=O)Nc1ccccc1P(=O)(c1ccccc1)c1ccccc1OC(C)=O (configuration not stated),inconclusive: 37%
7,Cc1c(Cl)cccc1-n1c(SCC(=O)NCc2cccs2)nnc1-c1ccncc1,inconclusive: 59.1%
8,CCc1nnc(NS(=O)(=O)c2ccc(NC(=S)NC(=O)c3ccc(F)cc3)cc2)s1,inconclusive: 58.2%
9,CC(C)c1noc2ncc(C(=O)c3cc(Cl)cc(Cl)c3O)cc12,inconclusive: 37.2%
10,O=C(CSc1nnc(NC(=O)c2ccco2)s1)NCc1ccc2c(c1)OCO2,inconclusive: 46.3%
11,Cc1cc(C)cc(NC(=O)N2CCC(NC(=O)c3ccccc3C)CC2)c1,inconclusive: 42.4%
12,CC(=O)Oc1ccc(N2C(=O)CCC2=O)cc1,inconclusive: 43.9%
13,CN(C)S(=O)(=O)c1cccc(NC(=S)N/N=C/c2cc(Br)ccc2O)c1,inactive: 9.46%
14,CCOC(=O)C1CCN(C(C(=O)Nc2ccc3c(c2)OCCO3)c2ccccc2)CC1 (configuration not stated),inconclusive: 42.8%
15,CC(=O)Nc1sc(C)c(C)c1C(=O)OCC(=O)Nc1cc(S(=O)(=O)N2CCCCC2)ccc1Cl,inconclusive: 33.2%
16,COC(=O)C1=C(NC(=O)CCCCl)CCS1,inconclusive: 40%
17,Cc1nc(C(=O)N(C)C)nn1-c1cc(Cl)ccc1Cl,inconclusive: 40.9%
18,COc1ccc2nc3ccccc3nc2c1,inactive: 0.36%
19,Cn1c(=O)c2ccccc2n(Cc2ccccc2F)c1=O,inconclusive: 50.4%
